# Results published in PubChem BioAssay (EPA / NIEHS).
# Protein sequences, listed by entry. Tags and fused reporters are not part of them. Lines headed by an entry give the natural chain unless they say otherwise; changes in a name come on top.
# UniProt Q96RI1: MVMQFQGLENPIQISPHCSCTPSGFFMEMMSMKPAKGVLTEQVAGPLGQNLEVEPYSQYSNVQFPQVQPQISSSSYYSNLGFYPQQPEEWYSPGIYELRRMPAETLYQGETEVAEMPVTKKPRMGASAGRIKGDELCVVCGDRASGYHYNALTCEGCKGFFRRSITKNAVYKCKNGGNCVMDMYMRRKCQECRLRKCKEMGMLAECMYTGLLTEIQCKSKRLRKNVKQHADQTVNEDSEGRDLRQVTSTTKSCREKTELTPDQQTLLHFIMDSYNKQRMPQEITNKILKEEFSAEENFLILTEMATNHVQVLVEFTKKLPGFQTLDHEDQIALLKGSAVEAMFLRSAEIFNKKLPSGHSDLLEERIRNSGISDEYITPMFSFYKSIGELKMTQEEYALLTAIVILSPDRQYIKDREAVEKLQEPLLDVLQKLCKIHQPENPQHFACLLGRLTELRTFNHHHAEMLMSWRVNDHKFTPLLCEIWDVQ
# UniProt P19793: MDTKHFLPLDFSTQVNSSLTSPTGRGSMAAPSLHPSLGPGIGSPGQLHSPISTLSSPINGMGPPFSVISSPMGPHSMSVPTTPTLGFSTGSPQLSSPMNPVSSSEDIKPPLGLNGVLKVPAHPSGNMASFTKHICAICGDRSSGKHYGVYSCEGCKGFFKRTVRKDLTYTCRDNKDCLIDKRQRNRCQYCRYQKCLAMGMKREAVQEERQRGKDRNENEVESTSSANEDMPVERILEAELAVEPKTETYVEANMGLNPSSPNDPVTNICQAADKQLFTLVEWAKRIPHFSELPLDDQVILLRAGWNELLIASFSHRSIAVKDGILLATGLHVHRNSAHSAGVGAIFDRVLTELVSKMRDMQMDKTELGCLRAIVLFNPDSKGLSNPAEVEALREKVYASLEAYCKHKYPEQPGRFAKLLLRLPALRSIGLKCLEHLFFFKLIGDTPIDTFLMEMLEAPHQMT
# UniProt P04637, whole entry, looked up: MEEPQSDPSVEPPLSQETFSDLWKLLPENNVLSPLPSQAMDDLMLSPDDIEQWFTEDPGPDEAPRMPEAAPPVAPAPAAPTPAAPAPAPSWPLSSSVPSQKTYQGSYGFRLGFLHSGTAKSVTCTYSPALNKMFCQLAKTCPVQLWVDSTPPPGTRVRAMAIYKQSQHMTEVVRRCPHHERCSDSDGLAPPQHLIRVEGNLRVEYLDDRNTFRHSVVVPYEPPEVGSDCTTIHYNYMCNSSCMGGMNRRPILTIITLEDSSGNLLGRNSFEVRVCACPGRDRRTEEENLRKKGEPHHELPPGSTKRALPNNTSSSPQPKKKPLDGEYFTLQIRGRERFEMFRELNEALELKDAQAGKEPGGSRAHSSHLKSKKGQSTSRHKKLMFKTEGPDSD
# UniProt P37231: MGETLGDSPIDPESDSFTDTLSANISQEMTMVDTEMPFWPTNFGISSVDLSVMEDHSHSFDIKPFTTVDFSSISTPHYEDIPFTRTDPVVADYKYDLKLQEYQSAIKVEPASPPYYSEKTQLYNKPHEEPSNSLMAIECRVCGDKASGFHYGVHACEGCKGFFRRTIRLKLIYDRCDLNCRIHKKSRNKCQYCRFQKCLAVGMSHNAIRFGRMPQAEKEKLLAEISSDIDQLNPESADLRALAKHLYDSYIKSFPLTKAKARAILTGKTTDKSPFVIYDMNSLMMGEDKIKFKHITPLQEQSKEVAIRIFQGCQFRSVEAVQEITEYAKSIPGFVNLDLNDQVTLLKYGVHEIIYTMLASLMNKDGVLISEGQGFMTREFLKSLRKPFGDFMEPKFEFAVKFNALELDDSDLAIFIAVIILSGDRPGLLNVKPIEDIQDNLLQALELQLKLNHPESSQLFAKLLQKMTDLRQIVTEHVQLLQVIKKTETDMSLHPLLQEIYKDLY
# Values joined by “and” are separate entries in the source; they are usually repeats but may differ in a detail not shown here. Identical values can stand only once. The inconclusive results got no clear call from the source; some entries with a clear call stand among them for comparison. Potencies beside an inconclusive call are fits to weak or partial responses and may not hold up. Active and inactive are the calls of the source. How the source made its calls: active means hit-call score of the fitted dose curve at least 0.9, where 1 is the maximum; inconclusive means response in the unintended direction; inactive means score below 0.9.
# Tests used:
# [1] = target: Bile acid receptor (Homo sapiens) (UniProt Q96RI1); test: OT_FXR_FXRSRC1_0480: Odyssey Thera (OT) 8-hour HEK293T Protein-Complementation Assay for Farnesoid X receptor/SRC-1 Co-activator (AID 2283383)
# How it was run: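 PCA, HEK293T, 8 h compound exposure; FXR–SRC-1 binding reconstitutes split reporter; fluorescence intensity; positive-direction fit vs DMSO.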
# [2] = target: Bile acid receptor (Homo sapiens) (UniProt Q96RI1); test: OT_FXR_FXRSRC1_1440: Odyssey Thera (OT) 24-hour HEK293T Protein-Complementation Assay for Farnesoid X receptor/SRC-1 Co-activator (AID 2283384)
# How it was run: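 Measures ligand-driven FXR–SRC-1 co-activator recruitment in HEK293T via fragment complementation, fluorescence intensity at 24 h. DMSO served as negative control and baseline for gain-of-signal fitting.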
# [3] = target: Retinoic acid receptor RXR-alpha (Homo sapiens) (UniProt P19793); test: OT_NURR1_NURR1RXRa_1440: Odyssey Thera (OT) 24-hour HEK293T Protein Complementation Assay for Nurr1/retinoid X receptor (RXR) (AID 2283386)
# How it was run: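 Steps: fragment-tagged Nurr1 and RXRα expressed in HEK293T; compounds added; after 24 h, complemented reporter quantified by fluorescence intensity; signal increase over DMSO fitted as the single endpoint.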
# [4] = TOX21_p53_BLA_p2_viability: Viability Assessment in the Tox21 HCT-116 p53 Agonism Beta-lactamase Assay, Phase 2 (AID 2283591);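 further: actives lower the ATP signal meaning cytotoxicity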
# How it was run: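 HCT116 p53-bla cells, 4000/well, dosed after 5 h plating (217-fold dilution of DMSO stocks) and incubated 16 h at 37C. Viability taken as cellular ATP by CellTiter-Glo luminescence after 30 min RT; signal loss marks cytotoxicity.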
# [5] = TOX21_p53_BLA_p3_viability: Viability Assessment in the Tox21 HCT-116 p53 Agonism Beta-lactamase Assay, Phase 3 (AID 2283593);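 further: cells exposed to compound for 16 h before reading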
# How it was run: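 HCT116 cells, 4000/well, dosed 5 h after plating by pin transfer (217-fold dilution from DMSO stock) and incubated 16 h at 37C, 5% CO2. Viability read as ATP luminescence with CellTiter-Glo after 30 min at room temperature.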
# [6] = target: Cellular tumor antigen p53 (Homo sapiens) (UniProt P04637); test: TOX21_p53_BLA_p3_ratio: Tox21 HCT-116 p53 Agonism Beta-lactamase Assay, Ratio, Phase 3 (AID 2283596)
# How it was run: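 Cells were seeded at 4000/well, rested 5 h at 37C, then dosed with DMSO compound solutions (217-fold dilution) for 16 h. CCF4-AM substrate was loaded for 2 h at room temperature, and the 460/530 nm emission ratio was fitted for gain of signal versus DMSO.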
# [7] = TOX21_p53_BLA_p4_viability: Viability Assessment in the Tox21 HCT-116 p53 Agonism Beta-lactamase Assay, Phase 4 (AID 2283597);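 further: hits lower the luminescence signal meaning cytotoxicity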
# How it was run: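 4000 HCT116 cells per well; 5 h attachment; compounds from DMSO, 217-fold dilution; 16 h at 37C. Then CCF4-AM, 2 h RT, followed by CellTiter-Glo, 30 min RT, luminescence. Decrease = cytotoxicity.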
# [8] = target: Cellular tumor antigen p53 (Homo sapiens) (UniProt P04637); test: TOX21_p53_BLA_p5_ratio: Tox21 HCT-116 p53 Agonism Beta-lactamase Assay, Ratio, Phase 5 (AID 2283599)
# How it was run: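 HCT-116 p53-bla cells (4000/well) plated 5 h, dosed with compound (217-fold DMSO dilution) for 16 h at 37 C; CCF4-AM substrate 2 h at room temperature. Activity is the 460/530 nm emission ratio (405 nm excitation), fitted in gain-of-signal direction versus DMSO.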
# [9] = TOX21_p53_BLA_p5_viability: Viability Assessment in the Tox21 HCT-116 p53 Agonism Beta-lactamase Assay, Phase 5 (AID 2283600)
# How it was run: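 Decreased CellTiter-Glo luminescence denotes lost viability. Exposure: 16 h at 37C, 5% CO2, with compounds from DMSO stocks diluted 217-fold in wells of 4000 cells.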
# [10] = target: Cellular tumor antigen p53 (Homo sapiens) (UniProt P04637); test: TOX21_p53_BLA_p4_ratio: Tox21 HCT-116 p53 Agonism Beta-lactamase Assay, Ratio, Phase 4 (AID 2283601)
# How it was run: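 HCT-116 p53 beta-lactamase reporter cells (4000/well) preincubated 5 h, then compound (217-fold dilution of DMSO stock) for 16 h at 37C. CCF4-AM substrate added 2 h at room temperature; 460/530 nm emission ratio fitted upward versus DMSO.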
# [11] = target: Retinoic acid receptor RXR-alpha (Homo sapiens) (UniProt P19793); test: OT_NURR1_NURR1RXRa_0480: Odyssey Thera (OT) 8-hour HEK293T Protein Complementation Assay for Nurr1/retinoid X receptor (RXR) (AID 2283385)
# How it was run: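 Interaction of bait and prey reconstitutes a functional reporter, whose fluorescence was measured in HEK293T cells dosed with compound for 8 hours. Signal gain relative to DMSO defined the single endpoint.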
# [12] = target: Peroxisome proliferator-activated receptor gamma (Homo sapiens) (UniProt P37231); test: OT_PPARg_PPARgSRC1_0480: Odyssey Thera (OT) 8-hour Protein-Complementation Assay for Peroxisome Proliferator-activated Receptor Gamma / SRC-1 Co-activator (AID 2283387);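 further: nuclear to cytoplasmic split Venus YFP fluorescence ratio reporting PPARg SRC-1 interaction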
# How it was run: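 Protein-fragment complementation in HEK293T: Venus YFP halves (residues 1-158, 159-239, mutated to IFP1/IFP2) fused to PPARg/SRC-1. 8 h exposure; N/C ratio at 488 nm; DMSO negative control.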
# [13] = ATG_XTT_Cytotoxicity: Cytotoxicity Assessment in the Attagene TRANS-FACTORIAL HepG2 Assay (AID 2283584);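 on AC50: XTT signal for cell number as viability in transfected HepG2 cells; cells exposed to compound for 24 h before reading; active means loss of viability signal versus DMSO baseline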
# How it was run: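 HepG2 cells transiently transfected with GAL4-UAS multiple reporter units, dosed 24 h; cytotoxicity read by XTT as loss of signal versus DMSO baseline.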
# [14] = target: Cellular tumor antigen p53 (Homo sapiens) (UniProt P04637); test: TOX21_p53_BLA_p2_ratio: Tox21 HCT-116 p53 Agonism Beta-lactamase Assay, Ratio, Phase 2 (AID 2283592)
# How it was run: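 First, HCT116 reporter cells settle for 5 h at 37C. Next, DMSO compound solutions are pinned in (217-fold dilution) and left 16 h. Finally, CCF4-AM substrate is loaded 2 h at room temperature and the 460/530 nm ratio read.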
compound,measurement,setting,value
O=C1CCCO1,AC50,[1],inconclusive: 50 µM
same,outcome,[2],inactive
same,AC50,[3],inconclusive: 50 µM
same,AC50,[4],inconclusive: 46.1 µM and inconclusive: 45.1 µM
same,outcome,[5],inactive
same,AC50,[6],inconclusive: 46.1 µM
same,AC50,[7],inconclusive: 46.1 µM
same,outcome,[7],inactive
same,AC50,[8],inconclusive: 46.1 µM
same,outcome,[8],inactive
same,AC50,[9],inconclusive: 61.4 µM
same,outcome,[10],inactive
N#CCCC(Br)(C#N)CBr (stereo not drawn),AC50,[1],inconclusive: 90.8 µM
same,AC50,[2],inconclusive: 69.2 µM
same,AC50,[6],active: 70.8 µM
same,AC50,[8],inconclusive: 46.1 µM
same,AC50,[9],inconclusive: 46.1 µM
CNC(=O)Oc1cccc2ccccc12,AC50,[1],inconclusive: 50 µM
same,AC50,[11],inconclusive: 2.82 µM
same,outcome,[11],inactive
same,AC50,[3],inconclusive: 18.9 µM and inconclusive: 30.3 µM
same,AC50,[4],inconclusive: 70.1 µM and inconclusive: 45.7 µM and inconclusive: 23 µM
same,AC50,[6],inconclusive: 23 µM
same,AC50,[7],inconclusive: 45.7 µM and inconclusive: 23 µM
same,AC50,[8],inconclusive: 23 µM
same,AC50,[9],inconclusive: 46.1 µM and inconclusive: 23 µM
same,AC50,[10],inconclusive: 46.1 µM and inconclusive: 23 µM
CCCOCC(=Nc1ccc(Cl)cc1C(F)(F)F)n1ccnc1,AC50,[1],inconclusive: 86.8 µM
same,AC50,[11],inconclusive: 79.1 µM and inconclusive: 66.7 µM
same,AC50,[3],inconclusive: 94.9 µM and inconclusive: 49.6 µM
same,AC50,[12],inconclusive: 87.7 µM
same,outcome,[13],inactive
same,AC50,[4],active: 23.7 µM
same,AC50,[5],active: 35.4 µM
same,AC50,[6],active: 68.1 µM
same,AC50,[7],active: 24.9 µM
same,AC50,[8],active: 48.5 µM
same,AC50,[9],active: 31.2 µM
same,AC50,[10],active: 46.2 µM
CC(C)(C)N(NC(=O)c1ccc(Cl)cc1)C(=O)c1ccccc1,AC50,[1],active: 70.1 µM
same,AC50,[11],inconclusive: 49.8 µM
same,AC50,[13],inconclusive: 99.5 µM
OCc1ccco1,outcome,[1],inactive
same,AC50,[2],inconclusive: 0.036 µM
same,AC50,[3],inconclusive: 50 µM
same,AC50,[4],inconclusive: 46.1 µM and inconclusive: 47.2 µM
same,AC50,[14],inconclusive: 47.2 µM
same,AC50,[5],inconclusive: 46.1 µM
same,AC50,[6],inconclusive: 46.1 µM
same,outcome,[6],inactive
same,AC50,[7],inconclusive: 46.1 µM and inconclusive: 88.7 µM
same,AC50,[8],inconclusive: 46.1 µM and inconclusive: 47.2 µM
same,outcome,[10],inactive
